From the supplement of paper PMC12823440, “Inhibitors supercharge kinase turnover through native proteolytic circuits” (Nature, 2025)
The list shows a part of the results. Hit calls seldom repeat between salt and free forms of one compound.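 In K562 cells expressing nanoluciferase-fused kinases, luminescence was recorded at 4 h intervals between 2 and 18 h, normalized as percent of control with DMSO at 100% and a positive control at 0%. A significant (2 sigma) signal drop marks a time point as decreased. The authors' rule for a hit is not shown and takes in more than the number of time points.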

By UniProt entry, the sequences of proteins in these tests, tags left out. Where a name states a change or a piece, a line headed by the entry shows the natural chain unless it says otherwise.
UniProt Q06187: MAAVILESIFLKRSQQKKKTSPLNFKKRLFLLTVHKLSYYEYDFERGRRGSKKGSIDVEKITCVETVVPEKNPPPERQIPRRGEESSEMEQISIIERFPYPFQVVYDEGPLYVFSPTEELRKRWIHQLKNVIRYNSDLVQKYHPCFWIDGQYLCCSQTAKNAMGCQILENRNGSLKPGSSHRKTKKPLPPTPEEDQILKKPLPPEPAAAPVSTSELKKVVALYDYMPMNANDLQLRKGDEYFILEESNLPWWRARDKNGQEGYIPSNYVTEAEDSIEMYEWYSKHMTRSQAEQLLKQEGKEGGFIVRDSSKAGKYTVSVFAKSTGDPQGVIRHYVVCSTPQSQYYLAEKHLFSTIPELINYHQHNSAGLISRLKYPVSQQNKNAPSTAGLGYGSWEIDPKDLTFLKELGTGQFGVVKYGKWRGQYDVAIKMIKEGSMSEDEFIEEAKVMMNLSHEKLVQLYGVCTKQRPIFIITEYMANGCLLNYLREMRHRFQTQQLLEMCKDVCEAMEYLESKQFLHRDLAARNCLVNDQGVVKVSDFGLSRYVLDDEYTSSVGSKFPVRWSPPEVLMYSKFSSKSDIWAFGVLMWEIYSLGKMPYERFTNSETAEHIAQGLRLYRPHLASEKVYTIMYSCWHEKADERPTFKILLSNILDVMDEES
UniProt Q9UQM7, whole entry: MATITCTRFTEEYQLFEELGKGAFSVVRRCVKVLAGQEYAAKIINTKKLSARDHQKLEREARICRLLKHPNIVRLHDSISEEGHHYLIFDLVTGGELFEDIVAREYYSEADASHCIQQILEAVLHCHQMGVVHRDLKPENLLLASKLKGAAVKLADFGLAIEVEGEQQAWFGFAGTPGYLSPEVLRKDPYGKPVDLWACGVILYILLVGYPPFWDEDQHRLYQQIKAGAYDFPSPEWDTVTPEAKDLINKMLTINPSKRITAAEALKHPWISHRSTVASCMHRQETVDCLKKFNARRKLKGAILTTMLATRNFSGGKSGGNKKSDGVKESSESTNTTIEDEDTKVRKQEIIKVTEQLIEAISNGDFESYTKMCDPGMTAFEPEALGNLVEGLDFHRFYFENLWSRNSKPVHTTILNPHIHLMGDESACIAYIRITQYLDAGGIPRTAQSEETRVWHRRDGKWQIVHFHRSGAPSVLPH
UniProt Q13555: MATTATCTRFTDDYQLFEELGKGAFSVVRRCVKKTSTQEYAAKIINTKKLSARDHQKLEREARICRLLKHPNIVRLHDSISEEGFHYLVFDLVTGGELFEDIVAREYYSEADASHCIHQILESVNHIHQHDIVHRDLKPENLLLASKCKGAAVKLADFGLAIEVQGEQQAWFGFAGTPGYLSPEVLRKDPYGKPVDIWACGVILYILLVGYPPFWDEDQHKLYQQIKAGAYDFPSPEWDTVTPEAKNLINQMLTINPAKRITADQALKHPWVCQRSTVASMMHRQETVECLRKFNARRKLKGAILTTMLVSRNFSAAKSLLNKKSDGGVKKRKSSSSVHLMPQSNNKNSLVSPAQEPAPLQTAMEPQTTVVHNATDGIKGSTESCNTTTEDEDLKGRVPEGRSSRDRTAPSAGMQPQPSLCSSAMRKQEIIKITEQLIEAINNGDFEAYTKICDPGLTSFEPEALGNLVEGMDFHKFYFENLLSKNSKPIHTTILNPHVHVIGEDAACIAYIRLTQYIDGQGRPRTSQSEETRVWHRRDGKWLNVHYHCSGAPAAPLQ
UniProt Q00535, whole entry, looked up: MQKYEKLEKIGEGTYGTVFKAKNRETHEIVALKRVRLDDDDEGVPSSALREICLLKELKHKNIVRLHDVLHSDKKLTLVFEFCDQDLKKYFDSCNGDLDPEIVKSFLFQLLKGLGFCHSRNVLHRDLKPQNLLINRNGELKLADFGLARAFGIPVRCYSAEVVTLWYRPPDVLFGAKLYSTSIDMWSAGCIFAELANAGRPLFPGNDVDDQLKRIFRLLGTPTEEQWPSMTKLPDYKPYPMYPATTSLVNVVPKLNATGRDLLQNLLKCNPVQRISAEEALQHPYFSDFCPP
UniProt Q00534, whole entry: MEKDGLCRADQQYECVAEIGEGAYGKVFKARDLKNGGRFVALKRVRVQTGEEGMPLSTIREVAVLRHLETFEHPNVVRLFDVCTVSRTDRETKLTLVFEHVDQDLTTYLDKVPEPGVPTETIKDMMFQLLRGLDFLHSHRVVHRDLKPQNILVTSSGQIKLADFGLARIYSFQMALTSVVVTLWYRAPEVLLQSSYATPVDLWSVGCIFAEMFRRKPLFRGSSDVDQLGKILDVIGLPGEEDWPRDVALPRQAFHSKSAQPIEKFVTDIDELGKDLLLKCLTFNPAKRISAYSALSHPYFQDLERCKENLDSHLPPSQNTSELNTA
UniProt P50613: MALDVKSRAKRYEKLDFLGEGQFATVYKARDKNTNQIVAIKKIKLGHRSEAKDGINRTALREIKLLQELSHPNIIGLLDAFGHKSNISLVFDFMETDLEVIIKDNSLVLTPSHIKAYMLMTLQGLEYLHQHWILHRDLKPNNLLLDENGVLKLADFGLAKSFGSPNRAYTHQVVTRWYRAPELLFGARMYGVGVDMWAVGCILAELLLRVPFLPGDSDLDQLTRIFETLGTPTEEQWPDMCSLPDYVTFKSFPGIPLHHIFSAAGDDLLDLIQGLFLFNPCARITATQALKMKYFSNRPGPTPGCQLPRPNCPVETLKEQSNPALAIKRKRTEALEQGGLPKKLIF
UniProt P50750, whole entry: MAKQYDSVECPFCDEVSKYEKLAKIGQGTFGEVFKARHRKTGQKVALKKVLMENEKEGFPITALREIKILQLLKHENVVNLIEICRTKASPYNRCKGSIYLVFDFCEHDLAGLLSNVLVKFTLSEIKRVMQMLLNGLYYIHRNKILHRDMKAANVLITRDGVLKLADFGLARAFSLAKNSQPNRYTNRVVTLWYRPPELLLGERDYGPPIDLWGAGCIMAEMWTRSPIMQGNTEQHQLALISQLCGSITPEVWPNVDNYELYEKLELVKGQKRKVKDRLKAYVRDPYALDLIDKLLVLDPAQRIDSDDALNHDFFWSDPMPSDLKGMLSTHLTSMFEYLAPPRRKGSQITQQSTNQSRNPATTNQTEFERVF
UniProt P07333, whole entry: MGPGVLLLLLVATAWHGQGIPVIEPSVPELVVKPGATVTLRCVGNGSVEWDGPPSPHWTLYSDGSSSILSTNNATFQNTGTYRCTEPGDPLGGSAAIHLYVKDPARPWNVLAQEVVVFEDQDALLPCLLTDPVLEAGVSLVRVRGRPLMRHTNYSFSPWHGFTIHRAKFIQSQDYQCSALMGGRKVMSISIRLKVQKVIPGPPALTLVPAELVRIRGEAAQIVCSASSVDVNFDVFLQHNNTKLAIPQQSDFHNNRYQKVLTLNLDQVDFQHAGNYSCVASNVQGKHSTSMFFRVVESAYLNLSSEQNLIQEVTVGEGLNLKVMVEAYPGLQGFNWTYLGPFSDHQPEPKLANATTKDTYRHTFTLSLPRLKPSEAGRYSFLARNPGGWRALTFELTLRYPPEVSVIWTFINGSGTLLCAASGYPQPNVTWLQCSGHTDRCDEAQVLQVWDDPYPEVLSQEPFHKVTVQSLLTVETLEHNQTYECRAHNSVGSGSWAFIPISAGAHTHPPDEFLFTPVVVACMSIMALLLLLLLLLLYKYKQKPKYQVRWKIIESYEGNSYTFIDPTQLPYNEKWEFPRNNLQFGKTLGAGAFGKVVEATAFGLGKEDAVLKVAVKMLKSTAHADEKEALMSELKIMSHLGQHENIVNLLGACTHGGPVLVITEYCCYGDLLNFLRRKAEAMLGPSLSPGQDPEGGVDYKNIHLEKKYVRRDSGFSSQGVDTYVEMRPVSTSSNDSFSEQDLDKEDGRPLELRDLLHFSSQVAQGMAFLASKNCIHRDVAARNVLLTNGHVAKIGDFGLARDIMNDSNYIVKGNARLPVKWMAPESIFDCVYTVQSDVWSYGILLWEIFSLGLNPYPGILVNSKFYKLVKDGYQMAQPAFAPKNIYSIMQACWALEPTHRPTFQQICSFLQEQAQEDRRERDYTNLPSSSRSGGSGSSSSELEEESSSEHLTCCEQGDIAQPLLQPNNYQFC
UniProt P41240: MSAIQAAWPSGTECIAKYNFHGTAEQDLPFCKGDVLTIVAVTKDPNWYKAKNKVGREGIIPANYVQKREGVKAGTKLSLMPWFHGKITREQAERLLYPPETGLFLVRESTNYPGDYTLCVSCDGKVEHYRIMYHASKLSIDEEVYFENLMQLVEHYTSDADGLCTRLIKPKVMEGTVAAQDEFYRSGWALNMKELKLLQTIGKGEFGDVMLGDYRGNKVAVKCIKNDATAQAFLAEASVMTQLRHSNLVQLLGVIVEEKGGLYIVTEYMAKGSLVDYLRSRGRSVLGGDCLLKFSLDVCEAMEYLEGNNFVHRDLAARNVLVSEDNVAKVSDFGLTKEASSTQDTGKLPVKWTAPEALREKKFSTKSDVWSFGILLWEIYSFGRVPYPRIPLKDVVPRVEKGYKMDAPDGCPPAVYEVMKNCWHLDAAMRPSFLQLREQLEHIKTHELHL
UniProt P48729: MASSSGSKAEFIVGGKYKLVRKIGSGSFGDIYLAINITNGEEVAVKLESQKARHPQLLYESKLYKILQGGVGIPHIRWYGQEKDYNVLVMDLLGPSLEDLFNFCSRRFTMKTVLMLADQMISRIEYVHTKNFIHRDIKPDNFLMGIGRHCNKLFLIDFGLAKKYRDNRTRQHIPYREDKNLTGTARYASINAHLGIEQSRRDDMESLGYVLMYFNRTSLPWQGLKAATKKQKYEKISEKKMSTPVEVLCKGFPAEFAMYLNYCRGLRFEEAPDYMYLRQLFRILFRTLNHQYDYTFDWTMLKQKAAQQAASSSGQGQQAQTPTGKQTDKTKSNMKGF
UniProt P48730: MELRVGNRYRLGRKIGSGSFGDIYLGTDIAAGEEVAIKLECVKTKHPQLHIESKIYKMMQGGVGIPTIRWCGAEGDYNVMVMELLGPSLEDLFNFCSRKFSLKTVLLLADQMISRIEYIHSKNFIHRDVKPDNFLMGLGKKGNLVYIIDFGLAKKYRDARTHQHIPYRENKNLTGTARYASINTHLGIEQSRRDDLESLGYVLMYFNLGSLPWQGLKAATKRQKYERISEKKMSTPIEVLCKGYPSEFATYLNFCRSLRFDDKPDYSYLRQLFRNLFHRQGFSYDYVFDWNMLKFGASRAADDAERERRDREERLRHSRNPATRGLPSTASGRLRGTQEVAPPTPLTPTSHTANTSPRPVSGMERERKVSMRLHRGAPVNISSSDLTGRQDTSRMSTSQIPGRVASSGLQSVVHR
UniProt Q9Y463, whole entry, looked up: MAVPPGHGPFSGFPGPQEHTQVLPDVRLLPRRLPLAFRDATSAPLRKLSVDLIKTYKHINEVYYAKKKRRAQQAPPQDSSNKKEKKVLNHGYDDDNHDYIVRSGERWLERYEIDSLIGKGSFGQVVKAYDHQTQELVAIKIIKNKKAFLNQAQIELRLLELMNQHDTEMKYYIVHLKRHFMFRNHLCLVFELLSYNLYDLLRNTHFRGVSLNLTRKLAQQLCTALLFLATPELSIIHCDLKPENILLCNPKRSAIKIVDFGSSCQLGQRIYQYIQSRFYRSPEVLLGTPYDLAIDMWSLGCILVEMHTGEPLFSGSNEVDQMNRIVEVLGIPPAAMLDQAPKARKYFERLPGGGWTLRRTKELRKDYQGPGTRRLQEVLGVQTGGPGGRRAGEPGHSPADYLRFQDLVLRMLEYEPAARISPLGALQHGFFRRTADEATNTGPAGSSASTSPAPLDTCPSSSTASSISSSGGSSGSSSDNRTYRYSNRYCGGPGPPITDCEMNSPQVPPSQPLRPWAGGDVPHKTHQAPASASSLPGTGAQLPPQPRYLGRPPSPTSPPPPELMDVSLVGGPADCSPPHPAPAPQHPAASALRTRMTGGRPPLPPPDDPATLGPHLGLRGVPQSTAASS
UniProt Q92630: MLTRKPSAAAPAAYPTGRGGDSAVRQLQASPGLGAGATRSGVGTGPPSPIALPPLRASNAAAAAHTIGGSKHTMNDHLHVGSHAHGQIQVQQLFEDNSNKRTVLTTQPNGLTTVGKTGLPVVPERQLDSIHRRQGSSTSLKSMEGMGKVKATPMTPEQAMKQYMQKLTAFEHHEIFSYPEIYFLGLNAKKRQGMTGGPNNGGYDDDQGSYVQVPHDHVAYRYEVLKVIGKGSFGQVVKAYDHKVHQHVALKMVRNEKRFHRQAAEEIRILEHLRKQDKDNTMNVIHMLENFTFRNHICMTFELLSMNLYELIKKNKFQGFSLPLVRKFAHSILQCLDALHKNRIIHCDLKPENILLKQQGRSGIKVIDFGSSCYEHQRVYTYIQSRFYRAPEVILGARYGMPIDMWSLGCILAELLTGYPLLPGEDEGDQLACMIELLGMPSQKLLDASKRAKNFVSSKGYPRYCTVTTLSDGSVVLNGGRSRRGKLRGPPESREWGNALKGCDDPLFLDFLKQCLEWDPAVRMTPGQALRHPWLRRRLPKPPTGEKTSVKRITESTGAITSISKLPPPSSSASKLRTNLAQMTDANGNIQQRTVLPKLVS

Legend:
Test in all cases: kinase-Nluc reporter destabilization hit call (1 = scored as downregulated) (binary); higher = compound decreases kinase abundance
Conditions in all cases: K562; 2-18 h
BRAF_V600E = test system: BRAF_V600E
BTK = BTK (UniProt Q06187)
CAMK2A = CAMK2A (UniProt Q9UQM7)
CAMK2G = CAMK2G (UniProt Q13555)
CDK10 = CDK10 (UniProt Q15131)
CDK2 = CDK2 (UniProt P24941)
CDK3 = CDK3 (UniProt Q00526)
CDK4 = CDK4 (UniProt P11802)
CDK5 = CDK5 (UniProt Q00535)
CDK6 = CDK6 (UniProt Q00534)
CDK7 = CDK7 (UniProt P50613)
CDK9 = CDK9 (UniProt P50750)
CHEK2 = CHEK2 (UniProt O96017)
CSF1R = CSF1R (UniProt P07333)
CSK = CSK (UniProt P41240)
CSNK1A1 = CSNK1A1 (UniProt P48729)
CSNK1D = CSNK1D (UniProt P48730)
DDR1 = DDR1 (UniProt Q08345)
DYRK1B = DYRK1B (UniProt Q9Y463)
DYRK2 = DYRK2 (UniProt Q92630)

Measured: kinase-Nluc reporter destabilization hit call

O=C(Nc1nc2ccccc2[nH]1)c1cccc([N+](=O)[O-])c1 [IRAK-4 protein kinase inhibitor 2] (10 µM)
inactive: BRAF_V600E 0 | BTK 0 | CAMK2A 0 | CAMK2G 0 | CDK10 = 0 | CDK2 = 0 | CDK3 = 0 | CDK4 = 0 | CDK5 = 0 | CDK6 = 0 | CDK7 = 0 | CDK9 = 0 | CHEK2 = 0 | CSF1R 0 | CSK 0 | CSNK1A1 = 0 | CSNK1D 0 | DDR1 = 0 | DYRK1B 0 | DYRK2 = 0

CCn1c(=O)c(-c2cc[nH]n2)cc2c(C)nc(N)nc21 [Voxtalisib] (10 µM)
inactive: BRAF_V600E 0 | BTK 0 | CAMK2A 0 | CAMK2G 0 | CDK10 = 0 | CDK2 = 0 | CDK3 = 0 | CDK4 = 0 | CDK5 = 0 | CDK6 = 0 | CDK7 = 0 | CDK9 = 0 | CHEK2 = 0 | CSF1R 0 | CSK 0 | CSNK1A1 = 0 | CSNK1D 0 | DDR1 = 0 | DYRK1B 0 | DYRK2 = 0

CCN(CC)CCC(=O)N1N=C(c2c(-c3ccccc3)c3cc(Br)ccc3[nH]c2=O)CC1c1ccc(Br)cc1 (stereo not given) (2.5 µM)
inactive: BRAF_V600E 0 | BTK 0 | CAMK2A 0 | CAMK2G 0 | CDK10 = 0 | CDK2 = 0 | CDK3 = 0 | CDK4 = 0 | CDK5 = 0 | CDK6 = 0 | CDK7 = 0 | CDK9 = 0 | CHEK2 = 0 | CSF1R 0 | CSK 0 | CSNK1A1 = 0 | CSNK1D 0 | DDR1 = 0 | DYRK1B 0 | DYRK2 = 0

Two compounds drawn at random from those above, as already listed:
CCN(CC)CCC(=O)N1N=C(c2c(-c3ccccc3)c3cc(Br)ccc3[nH]c2=O)CC1c1ccc(Br)cc1 (stereo not given) (2.5 µM)
inactive: BRAF_V600E 0 | BTK 0 | CAMK2A 0 | CAMK2G 0 | CDK10 = 0 | CDK2 = 0 | CDK3 = 0 | CDK4 = 0 | CDK5 = 0 | CDK6 = 0 | CDK7 = 0 | CDK9 = 0 | CHEK2 = 0 | CSF1R 0 | CSK 0 | CSNK1A1 = 0 | CSNK1D 0 | DDR1 = 0 | DYRK1B 0 | DYRK2 = 0

O=C(Nc1nc2ccccc2[nH]1)c1cccc([N+](=O)[O-])c1 [IRAK-4 protein kinase inhibitor 2] (10 µM)
inactive: BRAF_V600E 0 | BTK 0 | CAMK2A 0 | CAMK2G 0 | CDK10 = 0 | CDK2 = 0 | CDK3 = 0 | CDK4 = 0 | CDK5 = 0 | CDK6 = 0 | CDK7 = 0 | CDK9 = 0 | CHEK2 = 0 | CSF1R 0 | CSK 0 | CSNK1A1 = 0 | CSNK1D 0 | DDR1 = 0 | DYRK1B 0 | DYRK2 = 0

Additional entries:

Cc1cccc(-c2[nH]c(C(C)(C)C)nc2-c2ccc3nccnc3c2)n1 (10 µM)
inactive: BRAF_V600E 0 | BTK 0 | CAMK2A 0 | CAMK2G 0 | CDK10 = 0 | CDK2 = 0 | CDK3 = 0 | CDK4 = 0 | CDK5 = 0 | CDK6 = 0 | CDK7 = 0 | CDK9 = 0 | CHEK2 = 0 | CSF1R 0 | CSK 0 | CSNK1A1 = 0 | CSNK1D 0 | DDR1 = 0 | DYRK1B 0 | DYRK2 = 0

Cc1cnc(-c2ccc(-c3ccc(NC(=O)Nc4cccc(C(F)(F)F)c4)cc3F)c3c2C(=O)NC3)[nH]1 (10 µM)
inactive: BRAF_V600E 0 | BTK 0 | CAMK2A 0 | CAMK2G 0 | CDK10 = 0 | CDK2 = 0 | CDK3 = 0 | CDK4 = 0 | CDK5 = 0 | CDK6 = 0 | CDK7 = 0 | CDK9 = 0 | CHEK2 = 0 | CSF1R 0 | CSK 0 | CSNK1A1 = 0 | CSNK1D 0 | DDR1 = 0 | DYRK1B 0 | DYRK2 = 0

NC(=S)n1[nH]c(-c2ccc([N+](=O)[O-])cc2)c(N=Nc2cccc(Cl)c2)c1=O (2.5 µM)
inactive: BRAF_V600E 0 | BTK 0 | CAMK2A 0 | CAMK2G 0 | CDK10 = 0 | CDK2 = 0 | CDK3 = 0 | CDK4 = 0 | CDK5 = 0 | CDK6 = 0 | CDK7 = 0 | CDK9 = 0 | CHEK2 = 0 | CSF1R 0 | CSK 0 | CSNK1A1 = 0 | CSNK1D 0 | DDR1 = 0 | DYRK1B 0 | DYRK2 = 0

C[C@H](Nc1ncnc2nc[nH]c12)c1cc2cccc(Cl)c2c(=O)n1-c1ccccc1 [Duvelisib] (10 µM)
inactive: BRAF_V600E 0 | BTK 0 | CAMK2A 0 | CAMK2G 0 | CDK10 = 0 | CDK2 = 0 | CDK3 = 0 | CDK4 = 0 | CDK5 = 0 | CDK6 = 0 | CDK7 = 0 | CDK9 = 0 | CHEK2 = 0 | CSF1R 0 | CSK 0 | CSNK1A1 = 0 | CSNK1D 0 | DDR1 = 0 | DYRK1B 0 | DYRK2 = 0

CCCNC(=O)Nc1ccc(Oc2ncnc3cc(OC)c(OC)cc23)cc1Cl (2.5 µM)
inactive: BRAF_V600E 0 | BTK 0 | CAMK2A 0 | CAMK2G 0 | CDK10 = 0 | CDK2 = 0 | CDK3 = 0 | CDK4 = 0 | CDK5 = 0 | CDK6 = 0 | CDK7 = 0 | CDK9 = 0 | CHEK2 = 0 | CSF1R 0 | CSK 0 | CSNK1A1 = 0 | CSNK1D 0 | DDR1 = 0 | DYRK1B 0 | DYRK2 = 0

Cn1cc(-c2c[nH]c3ncnc(N4CCOCC4)c23)cc1C#N (10 µM)
inactive: BRAF_V600E 0 | BTK 0 | CAMK2A 0 | CAMK2G 0 | CDK10 = 0 | CDK2 = 0 | CDK3 = 0 | CDK4 = 0 | CDK5 = 0 | CDK6 = 0 | CDK7 = 0 | CDK9 = 0 | CHEK2 = 0 | CSF1R 0 | CSK 0 | CSNK1A1 = 0 | CSNK1D 0 | DDR1 = 0 | DYRK1B 0 | DYRK2 = 0

CCN(CC)c1cc2oc(=O)c(-c3nc4ccccc4o3)cc2cc1C (2.5 µM)
inactive: BRAF_V600E 0 | BTK 0 | CAMK2A 0 | CAMK2G 0 | CDK10 = 0 | CDK2 = 0 | CDK3 = 0 | CDK4 = 0 | CDK5 = 0 | CDK6 = 0 | CDK7 = 0 | CDK9 = 0 | CHEK2 = 0 | CSF1R 0 | CSK 0 | CSNK1A1 = 0 | CSNK1D 0 | DDR1 = 0 | DYRK1B 0 | DYRK2 = 0

COc1cc2ncnc(Nc3ccc(F)c(Cl)c3)c2cc1NC(=O)/C=C/CN1CCCCC1 [Dacomitinib] (10 µM)
inactive: BRAF_V600E 0 | BTK 0 | CAMK2A 0 | CAMK2G 0 | CDK10 = 0 | CDK2 = 0 | CDK3 = 0 | CDK4 = 0 | CDK5 = 0 | CDK6 = 0 | CDK7 = 0 | CDK9 = 0 | CHEK2 = 0 | CSF1R 0 | CSK 0 | CSNK1A1 = 0 | CSNK1D 0 | DDR1 = 0 | DYRK1B 0 | DYRK2 = 0

COc1ccc(-c2c(C)nn3c(NCCN4CCOCC4)cc(C)nc23)cc1OC (10 µM)
inactive: BRAF_V600E 0 | BTK 0 | CAMK2A 0 | CAMK2G 0 | CDK10 = 0 | CDK2 = 0 | CDK3 = 0 | CDK4 = 0 | CDK5 = 0 | CDK6 = 0 | CDK7 = 0 | CDK9 = 0 | CHEK2 = 0 | CSF1R 0 | CSK 0 | CSNK1A1 = 0 | CSNK1D 0 | DDR1 = 0 | DYRK1B 0 | DYRK2 = 0

C=CC(=O)Nc1cc(Nc2nccc(-n3cc(CN(C)C)c(-c4ccccc4)n3)n2)c(OC)cc1N1CCOCC1 [Lazertinib] (10 µM)
inactive: BRAF_V600E 0 | BTK 0 | CAMK2A 0 | CAMK2G 0 | CDK10 = 0 | CDK2 = 0 | CDK3 = 0 | CDK4 = 0 | CDK5 = 0 | CDK6 = 0 | CDK7 = 0 | CDK9 = 0 | CHEK2 = 0 | CSF1R 0 | CSK 0 | CSNK1A1 = 0 | CSNK1D 0 | DDR1 = 0 | DYRK1B 0 | DYRK2 = 0

CCOC(=O)N1C/C(=C/c2ccccc2F)C(=O)/C(=C\c2ccccc2F)C1 (2.5 µM)
inactive: BRAF_V600E 0 | BTK 0 | CAMK2A 0 | CAMK2G 0 | CDK10 = 0 | CDK2 = 0 | CDK3 = 0 | CDK4 = 0 | CDK5 = 0 | CDK6 = 0 | CDK7 = 0 | CDK9 = 0 | CHEK2 = 0 | CSF1R 0 | CSK 0 | CSNK1A1 = 0 | CSNK1D 0 | DDR1 = 0 | DYRK1B 0 | DYRK2 = 0

O=C1/C(=C\c2ccc(Cl)cc2)C=C(c2ccccc2)N1c1ccc(O)cc1 (2.5 µM)
inactive: BRAF_V600E 0 | BTK 0 | CAMK2A 0 | CAMK2G 0 | CDK10 = 0 | CDK2 = 0 | CDK3 = 0 | CDK4 = 0 | CDK5 = 0 | CDK6 = 0 | CDK7 = 0 | CDK9 = 0 | CHEK2 = 0 | CSF1R 0 | CSK 0 | CSNK1A1 = 0 | CSNK1D 0 | DDR1 = 0 | DYRK1B 0 | DYRK2 = 0

COc1cc(N(C)CCN(C)C)c(N)cc1Nc1nccc(-c2cn(C)c3ccccc23)n1 [Mutated EGFR-IN-1] (10 µM)
inactive: BRAF_V600E 0 | BTK 0 | CAMK2A 0 | CAMK2G 0 | CDK10 = 0 | CDK2 = 0 | CDK3 = 0 | CDK4 = 0 | CDK5 = 0 | CDK6 = 0 | CDK7 = 0 | CDK9 = 0 | CHEK2 = 0 | CSF1R 0 | CSK 0 | CSNK1A1 = 0 | CSNK1D 0 | DDR1 = 0 | DYRK1B 0 | DYRK2 = 0
